From PMC10261145, “Ceramide sensing by human SPT-ORMDL complex for establishing sphingolipid homeostasis” (Nature Communications, 2023)
No constants are given. Whether binding was seen depends on the method and setting. In cells and extracts the contact can be indirect. A result given as binding can be weak or reduced; the word gives no strength.

Molecular target: SPT complex with the ALS-associated SPTLC1 variant Y23A (human)
Assay: co-purification (anti-Flag affinity resin, then SEC; Coomassie-stained SDS-PAGE); subunits co-expressed in HEK293F; membranes solubilized with 1% GDN; anti-Flag G1 resin, elution with Flag peptide, Superose 6 in 25 mM HEPES pH 7.5, 150 mM NaCl, 0.01% GDN; which subunit carries the Flag tag is not stated

B1: ORMDL3 (full-length, wild type) (natural protein, human, UniProt Q8N138 1-153, looked up)
chain: MNVGTAHSEVNPNTRVMNSRGIWLSYVLAIGLLHIVLLSIPFVSVPVVWTLTNLIHNMGMYIFLHTVKGTPFETPDQGKARLLTHWEQMDYGVQFTASRKFLTITPIVLYFLTSFYTKYDQIHFVLNTVSLMSVLIPKLPQLHGVRIFGINKY
notes: ORMDL3, human, codon-optimized full-length cDNA in pCAG (new ORMDL3-FL plasmid without the 14 extra nucleotides upstream of the ORF); cDNAs were cloned 'with an N-terminal Flag tag or without a tag'; also called ORMDL3-FL; WT ORMDL3; source: HEK293F, transiently co-transfected with the SPT subunits, purified as a complex (anti-Flag resin, SEC, GDN)
binding: binds
